{
  "sequences": {"note": "By UniProt entry, the sequences of proteins in these tests, tags left out.", "UniProt Q5ZTL3": "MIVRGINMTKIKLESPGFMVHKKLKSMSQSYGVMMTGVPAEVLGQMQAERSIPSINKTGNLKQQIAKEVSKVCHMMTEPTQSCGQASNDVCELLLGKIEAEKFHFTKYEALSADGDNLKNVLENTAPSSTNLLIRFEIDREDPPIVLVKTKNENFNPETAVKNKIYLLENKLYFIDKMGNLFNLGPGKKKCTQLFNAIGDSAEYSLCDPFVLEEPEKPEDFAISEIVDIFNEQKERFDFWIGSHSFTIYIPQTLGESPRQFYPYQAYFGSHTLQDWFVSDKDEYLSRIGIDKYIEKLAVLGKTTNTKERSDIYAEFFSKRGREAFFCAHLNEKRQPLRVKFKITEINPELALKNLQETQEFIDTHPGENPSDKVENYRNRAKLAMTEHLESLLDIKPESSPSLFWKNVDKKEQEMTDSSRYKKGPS", "UniProt P61088": "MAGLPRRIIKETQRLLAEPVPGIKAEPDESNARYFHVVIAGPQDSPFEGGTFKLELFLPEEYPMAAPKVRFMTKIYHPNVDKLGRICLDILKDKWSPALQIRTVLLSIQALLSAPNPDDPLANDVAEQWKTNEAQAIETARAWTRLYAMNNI"},
  "source": "paper PMC7265302",
  "biological_target": "MvcA, wild type (Legionella pneumophila) (UniProt Q5ZTL3)",
  "assay": "SEC; both purified",
  "note": "These are yes or no findings as the source states them, for the method shown.",
  "data": [
    {"substance": "UBE2N, free form (from UniProt P61088 1-152) (enzyme)", "values": [
      {"measurement": "binding", "value": "no binding"}
    ]}
  ]
}
